Binding data for one substance are collected here from publication PMC1894825.

Results are given in words; binding and its absence hold for the method and conditions named.

The test concerns the target recombinant Lsr2 (M. tuberculosis, Rv3597c) (M. tuberculosis) (UniProt P9WIP7). Briefly: pull-down; both purified.

For the substance “DNase I (from UniProt P00639 23-282) (enzyme)”, the binding entry is reported as “no binding (tested: 5 ug DNase I on 1 ug Lsr2)”.
